Results published in article PMC12343779.
No constants are given. Whether binding was seen depends on the method and setting. Binding seen in cells or lysates may run through a third protein. Some results given as binding are weak or reduced against the parent protein; the word gives no strength.

The chains behind the UniProt entries cited, without tags or fusion partners. Residues count along the entry.
UniProt Q63722, residues 34-1219: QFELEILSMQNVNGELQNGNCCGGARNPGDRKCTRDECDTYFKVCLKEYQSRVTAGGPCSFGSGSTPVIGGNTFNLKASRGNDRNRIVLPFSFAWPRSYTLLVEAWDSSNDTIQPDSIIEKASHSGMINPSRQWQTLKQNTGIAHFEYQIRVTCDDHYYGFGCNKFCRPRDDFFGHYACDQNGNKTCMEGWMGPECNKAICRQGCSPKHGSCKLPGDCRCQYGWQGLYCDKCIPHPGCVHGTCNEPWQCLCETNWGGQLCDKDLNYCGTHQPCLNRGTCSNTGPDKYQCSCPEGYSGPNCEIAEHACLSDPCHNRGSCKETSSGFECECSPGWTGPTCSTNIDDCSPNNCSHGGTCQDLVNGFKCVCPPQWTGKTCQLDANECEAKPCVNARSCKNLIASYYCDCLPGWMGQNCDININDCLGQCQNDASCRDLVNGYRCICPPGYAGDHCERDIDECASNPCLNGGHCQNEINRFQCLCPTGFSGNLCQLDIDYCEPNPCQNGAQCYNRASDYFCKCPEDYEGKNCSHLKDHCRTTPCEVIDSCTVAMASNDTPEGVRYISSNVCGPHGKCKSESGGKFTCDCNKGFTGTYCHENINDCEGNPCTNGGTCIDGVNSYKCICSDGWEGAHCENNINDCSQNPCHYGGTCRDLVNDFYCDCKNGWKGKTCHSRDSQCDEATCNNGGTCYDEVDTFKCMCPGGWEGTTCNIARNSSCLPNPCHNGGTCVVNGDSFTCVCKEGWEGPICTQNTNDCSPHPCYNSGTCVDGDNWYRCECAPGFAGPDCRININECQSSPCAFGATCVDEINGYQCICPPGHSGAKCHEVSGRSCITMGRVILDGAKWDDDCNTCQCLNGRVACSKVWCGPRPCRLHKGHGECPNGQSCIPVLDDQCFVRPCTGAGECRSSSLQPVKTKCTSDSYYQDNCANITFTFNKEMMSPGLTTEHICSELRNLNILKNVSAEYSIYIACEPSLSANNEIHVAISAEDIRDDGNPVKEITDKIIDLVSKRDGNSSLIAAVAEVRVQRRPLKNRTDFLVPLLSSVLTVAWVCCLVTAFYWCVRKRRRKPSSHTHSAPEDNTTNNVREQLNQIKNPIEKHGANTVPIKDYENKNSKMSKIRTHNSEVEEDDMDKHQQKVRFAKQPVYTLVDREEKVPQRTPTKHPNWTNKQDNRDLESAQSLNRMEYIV
UniProt G3V7W1: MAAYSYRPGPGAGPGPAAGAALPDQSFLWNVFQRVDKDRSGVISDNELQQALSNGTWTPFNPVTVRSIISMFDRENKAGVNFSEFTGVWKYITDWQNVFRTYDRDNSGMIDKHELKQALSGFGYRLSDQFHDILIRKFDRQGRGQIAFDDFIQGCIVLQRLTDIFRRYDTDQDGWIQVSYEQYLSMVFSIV

Assays:
Assay in all cases: co-IP; endogenous proteins in rat liver tissue lysate; 1 ug antibody or IgG on protein A+G magnetic beads, overnight at 4 °C; washed with lysis buffer; eluate read by Western blot
[1] = target: JAG1 (rat (endogenous in rat liver tissue)) (UniProt Q63722)
[2] = target: T1, Alix (rat (endogenous in rat liver tissue)) (UniProt Q9QZA2)
T1 sequence: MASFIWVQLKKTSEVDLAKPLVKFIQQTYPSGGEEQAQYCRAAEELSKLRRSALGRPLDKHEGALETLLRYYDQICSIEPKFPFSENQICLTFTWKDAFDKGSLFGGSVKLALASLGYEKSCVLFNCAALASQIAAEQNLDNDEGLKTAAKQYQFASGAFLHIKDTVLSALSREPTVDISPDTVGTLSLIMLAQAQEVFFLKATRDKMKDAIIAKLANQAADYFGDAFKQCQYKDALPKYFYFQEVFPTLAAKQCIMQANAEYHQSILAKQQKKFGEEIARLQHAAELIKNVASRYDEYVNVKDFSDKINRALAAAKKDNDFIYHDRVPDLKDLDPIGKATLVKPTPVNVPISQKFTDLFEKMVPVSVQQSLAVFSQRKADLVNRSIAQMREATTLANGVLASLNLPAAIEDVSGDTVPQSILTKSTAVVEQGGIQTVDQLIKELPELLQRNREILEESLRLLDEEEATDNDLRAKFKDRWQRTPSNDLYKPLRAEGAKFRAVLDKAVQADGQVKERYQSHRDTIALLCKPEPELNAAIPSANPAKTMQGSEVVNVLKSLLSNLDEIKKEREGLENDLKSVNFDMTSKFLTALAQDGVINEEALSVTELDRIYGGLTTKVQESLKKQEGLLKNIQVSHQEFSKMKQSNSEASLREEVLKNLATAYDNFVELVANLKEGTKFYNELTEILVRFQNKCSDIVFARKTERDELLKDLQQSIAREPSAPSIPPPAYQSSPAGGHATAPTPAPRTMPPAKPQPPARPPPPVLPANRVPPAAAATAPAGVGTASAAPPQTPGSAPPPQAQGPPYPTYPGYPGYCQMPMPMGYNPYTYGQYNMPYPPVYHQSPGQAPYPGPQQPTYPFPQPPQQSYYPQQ

[3] = target: ALG-2 (rat (endogenous in rat liver tissue)) (UniProt G3V7W1)

ALG-2 (from UniProt G3V7W1 1-191)
binding [1]: binds | binding [2]: binds

B1: SEC31A (protein, UniProt Q9Z2Q1 1-1249)
chain: MKLKEIDRTAMQAWSPAQNHPIYLATGTSAQQLDATFSTNASLEIFELDLSDPSLDMKSCATFSSSHRYHKLIWGPHKMDSKGDVSGVLIAGGENGNIILYDPSKIIAGDKEVVIAQKDKHTGPVRALDVNIFQTNLVASGANESEIYIWDLNNFATPMTPGAKTQPPEDISCIAWNRQVQHILASASPSGRATVWDLRKNEPIIKVSDHSNRMHCSGLAWHPDVATQMVLASEDDRLPVVQMWDLRFASSPLRVLENHARGILAIAWSMADPELLLSCGKDAKILCSNPNTGEVLYELPTNTQWCFDIQWCPRNPAVLSAASFDGRIRVYSIMGGSIDGLRQKQVDKLSSSFGNLDPFGTGQPLPPLQIPQQTSQHSIVLPLKKPPKWIRRPVGASFSFGGKLVTFENVTGQPQQGAEQPRRQPVFISQVVTEKDFLSRSEQLQHVVQSQGFISYCQKKIDASQTDFEKNVWSFLKVNFEEDSRGKYLELLGYRREDLGEKIALALNRVDGSDVALKDSDRVAQSDGEESPAEEGQLLGERIKEEKQECDFLPSAGGGTFNISVSGDIDGLITRALLTGNFESAVDLCLHDNRMADAIILAIAGGQELLAQTQKKYFAKSQSKITRLITAVVMKNWKEIVESCDLKNWREALAAVLTYAKPDEFSALCDLLGARLESEGDSLLRTQACLCYICAGNVERLVACWTKAQDGSNPLSLQDLIEKVVILRKAVQLTQALDTNTVGALLAEKMSQYANLLAAQGSIAAALAFLPDNTNQPDIVQLRDRLCRAQGRSVPGQESSRSSYEGQPLPKGGPGPLAGHPQVSRVQSQQYYPQVRIAPTVTTWSDRTPTALPSHPPAACPSDTQGGNPPPPGFIMHGNVVPNSPAPLPTSPGHMHSQPPPYPQPQPYQPAQQYSLGTGGSAVYRPQQPVAPPASKRYPNAPYVSPVASYSGQPHMYTAQPASSPTSSSAPLPPPPSSGASFQHGGPGAPPSSSAYALPPGTTGTPPAASELPASQRTGPQNGWNDPPALNRVPKKKKLPENFMPPVPITSPIMNPGGDPQPQGLQQQPSASGPRSSHASFPQPHLAGGQPFHGIQQPLAQTGMPPSFSKPNTEGAPGAPIGNTIQHVQALPTEKITKKPIPDEHLILKTTFEDLIQRCLSSATDPQTKRKLDDASKRLECLYDKLRDQTLSPTIISGLHSIARSIETRNYSEGLTVHTHIVSTSNFSETSAFMPVLKVVLSQASKLGV
binding [1]: binds | binding [3]: binds
